Structures were worked out from names or drawings and are uncertain.
Columns and labels:
[1] = system: PKCδ-GFP fusion protein; assay: PKCδ-GFP translocation assay in living CHO-k1 cells (confocal microscopy); assay type: cell-based, Chinese hamster
[2] = system: PKC; assay: cell-free PKC binding assay, isoform not given; set-up: species or system human

SMILES: CCC/C=C/C=C/C(=O)O[C@H]1/C(=C/C(=O)OC)C[C@H]2C[C@H]([C@@H](C)O)OC(=O)C[C@H](O)C[C@@H]3C[C@H](OC(C)=O)C(C)(C)[C@](O)(C[C@@H]4C/C(=C/C(=O)OCc5ccccc5)C[C@H](/C=C/C(C)(C)[C@]1(O)O2)O4)O3
- concentration* (minimum effective concentration required to induce translocation of PKC-GFP to the membrane) [1]: 1000 nM
- % Translocation ([1]; maximum translocation of PKCδ-GFP to the plasma membrane at the concentration printed in the same cell, SUW212: only brief translocation observed): 60%
- decrease in affinity (binds PKC) ([2]; comparator not stated): 2 fold
- decrease in affinity to PKC / potency ([2]; versus bryostatin 1 (C13 methyl-(Z)-enoate)): 30 fold

— US20220193029A1, “BRYOSTATIN COMPOUNDS FOR ENHANCEMENT OF IMMUNOTHERAPY” (priority 2019, published 2022)
